Test results reported in PubChem BioAssay AID504467 (National Center for Advancing Translational Sciences (NCATS), 2011).
The campaign covered roughly 330,000 compounds. About 7,700 (2.3%) were called active. This list was built around the results that the source calls inconclusive (neither active nor inactive); the mix of calls is not that of the screen. Calls come from the whole dose curve; as a rule, active = well fitted inhibition curve with a large enough effect; inconclusive = small, poorly fitted or top-dose-only effect, or effect the other way; inactive = flat fitted curve, though single readings scatter. Where the call is inconclusive, the potency comes from a doubtful curve fit.

test: qHTS screen for small molecules that inhibit ELG1-dependent DNA repair in human embryonic kidney (HEK293T) cells expressing luciferase-tagged ELG1; conditions: HEK293T ELG1-luciferase reporter, luminescence, 16 h, DNA damage induced by 5-fluorouridine; series mostly up to 46.1 µM; note: nearly all actives have a fitted effect of over 55% in size
Procedure, shortened: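 Overnight (16 hr) co-exposure of 2,000 cells/well to 5-fluorouridine and compound at 37 °C preceded detection. Luciferase was quantified via ONE-Glo luminescence; loss of signal denotes inhibition.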
Potency is the fitted concentration of half-maximal effect.

Row | Structure (SMILES) | Potency
1 | CCCCNC(=O)c1nnn(-c2ccccc2)c1N | inconclusive: 16.4 µM [activator, partial curve]
2 | O=C1c2ccccc2NC(c2ccccc2O)N1O (stereo not given) | inconclusive: 20.6 µM [inhibitor, single point]
3 | O=C(CCC1CCCN(C(=O)c2ccc3c(c2)OCO3)C1)N1CCN(c2ccccn2)CC1 (stereo not given) | inconclusive: 29.1 µM [inhibitor, single point]
4 | CC(C)CNS(=O)(=O)c1ccccc1C(=O)N1CCCCC1 | inconclusive: 1.16 µM [inhibitor, single point]
5 | Cc1ccc2nc(-c3ccc(N4C(=NC(=O)CCC(=O)O)SC5CS(=O)(=O)CC54)cc3)sc2c1 (stereo not given) | inconclusive: 9.2 µM [activator, partial curve]
6 | O=c1[nH]c(C2CCN(S(=O)(=O)c3ccc(C(F)(F)F)cc3)CC2)nc2c1nnn2Cc1cccc(F)c1 | inconclusive: 16.4 µM [inhibitor, single point]
7 | CC1Cc2ccccc2N1C(=O)CSc1nn2c(=O)c(C(C)(C)C)nnc2s1 (stereo not given) | inactive
8 | COc1ccc(OCC(=O)Nc2cc(S(=O)(=O)N3CCCCC3)ccc2OC)cc1 | inconclusive: 20.6 µM [inhibitor, single point]
9 | N#Cc1cccc(N=c2ssnc2Cl)c1 | inconclusive: 16.4 µM [inhibitor, single point]
10 | COc1ccc(CCN(C)CC(=O)Nc2cc(C)nc3ccccc23)cc1OC | inconclusive: 18.3 µM [inhibitor, partial curve, poor fit]
11 | CCCS(=O)(=O)c1c(S(=O)(=O)CCC)c2cnccn2c1C(=O)c1ccc(OC)cc1 | inactive
12 | CCOc1ccc(NC(=O)Cn2c(=O)oc3cc(Cl)ccc32)cc1 | inactive
13 | Cc1oc(C(C)(C)C)cc1C(=O)Nc1ccc(C(=O)O)cc1 | inconclusive: 16.4 µM [activator, partial curve]
14 | CCCCNC(=O)CNC(=O)c1nn(-c2ccc(OC)cc2)c(=O)c2ccccc12 | inactive
15 | Cc1ccc(C(=O)Nc2ccccc2Cl)cc1 | inconclusive: 4.47 µM [activator, partial curve]
16 | Cc1cccc(C(=O)NC(=S)Nc2ccc(Cc3ccncc3)cc2)c1 | inactive
17 | Cc1nc(C(C)NC(=O)CCc2nnc(CCCc3ccccc3)o2)c(C)s1 (stereo not given) | inconclusive: 14.6 µM [activator, partial curve]
18 | Cc1cccc2cc(CN(Cc3cccs3)Cc3nnnn3Cc3ccccc3)c(=O)[nH]c12 | active: 18.4 µM
19 | CN(C)C(CNC(=O)c1cnc(Cl)c(Cl)c1)c1ccccc1 (stereo not given) | inconclusive: 7.3 µM [activator, partial curve, poor fit]
20 | COc1cccc(Nc2nc(-c3ccccc3)nc3ccccc23)c1 | inconclusive: 29.1 µM [inhibitor, single point]
21 | CCCC12CN3CCN(CC(C3)/C1=N\NC(=O)c1ccccc1N)C2 | inconclusive: 10.3 µM [activator, partial curve]
22 | CCOc1ccc(N(CC(=O)NC2CCCC2)C(=O)CCC(=O)Nc2nccs2)cc1 | inactive
23 | COc1ccccc1-c1nnc(NC(=O)c2ccc3ncsc3c2)o1 | inconclusive: 14.6 µM [activator, partial curve]

Quoted at random: two records from the list, in no set order.
Row | Structure (SMILES) | Potency
9 | N#Cc1cccc(N=c2ssnc2Cl)c1 | inconclusive: 16.4 µM [inhibitor, single point]
6 | O=c1[nH]c(C2CCN(S(=O)(=O)c3ccc(C(F)(F)F)cc3)CC2)nc2c1nnn2Cc1cccc(F)c1 | inconclusive: 16.4 µM [inhibitor, single point]

Carrying on.

Row | Structure (SMILES) | Potency
24 | CCOc1cc(NC(=O)C2CCCO2)c(OCC)cc1NC(=O)C1CC1 (stereo not given) | inconclusive: 29.1 µM [inhibitor, single point]
25 | Cc1ccc(OCC(O)Cn2c(N)nc3c2c(=O)n(C)c(=O)n3C)cc1 (stereo not given) | inconclusive: 29.1 µM [inhibitor, single point]
26 | O=C(N/N=C\c1cccnc1)c1ccc(Cl)s1 | inconclusive: 16.4 µM [activator, partial curve]
27 | Cc1cccc(C(=O)NCc2nnc3c4ccccc4c(-c4ccccc4)nn23)c1 | inconclusive: 18.4 µM [inhibitor, partial curve, poor fit]
28 | CN(C)NC(=O)c1ccsc1NC(=O)c1ccc(S(=O)(=O)N2CCCC2)cc1 | inconclusive: 29.1 µM [inhibitor, single point]
29 | Cc1cc([N+](=O)[O-])nn1CCCC(=O)O | inactive
30 | N/C(=N\OC(=O)c1ccc([N+](=O)[O-])cc1)c1cccnc1 | inconclusive: 20.6 µM [activator, partial curve]
31 | COc1ccc(Oc2ccccc2/C=N/O)cc1 | inactive
32 | CC(C)(C)OC(=O)NCc1ccc(NC(=O)c2nc[nH]c2C(=O)NCCCNC(=O)c2[nH]cnc2C(=O)Nc2ccc(CNC(=O)OC(C)(C)C)cc2)cc1 | active: 1.83 µM
33 | CCc1nnc(NC(=O)c2c(O)c3cccc4c3n(c2=O)CC4)s1 | inconclusive: 16.4 µM [inhibitor, partial curve, poor fit]
34 | Cc1sc(NC(=O)c2ccccc2)c(C(c2ccc(Cl)cc2)N2CCN(CCO)CC2)c1C (stereo not given) | inactive
35 | COc1ccc(CNCC(=O)Nc2cc(OC)cc(OC)c2)cc1 | inconclusive: 14.6 µM [inhibitor, partial curve, poor fit]
36 | CCN(CCCCCN(C)C)Cc1cc2ccccc2o1 | inactive
37 | Cc1nn(Cc2noc(C(=O)NCc3ccccn3)n2)c(C)c1Br | inactive
38 | O=C(O)C(C(O)c1ccccc1)[n+]1ccccc1 (stereo not given) | inconclusive: 12.6 µM [activator, single point]
39 | CC(=O)N1CN(Cc2ccccn2)Cc2c1sc1c2CCCC1 | inconclusive: 20.6 µM [activator, partial curve, poor fit]
40 | O=C(COC(=O)CNS(=O)(=O)/C=C/c1ccccc1)Nc1cccc2ccccc12 | inactive
41 | COc1ccccc1OCCn1c(CO)nc2ccccc21 | inactive
42 | COc1ccc2c(=O)c3c(=O)n(Cc4ccco4)c(-c4ccccc4)nc3oc2c1 | inconclusive: 32.6 µM [inhibitor, partial curve, poor fit]
43 | Cc1ccc(-n2cc(CNCCCN3CCCC3=O)c(-c3ccc(F)cc3)n2)cc1 | inactive
44 | Cc1ccc(Cl)cc1N1CCN(C(=O)c2noc(C(C)C)c2[N+](=O)[O-])CC1 | inactive
45 | NNC(=O)c1csc(COc2cc(Cl)cc(Cl)c2)n1 | inactive
